# Results taken from publication doi:10.1101/2022.05.02.490374.
# By UniProt entry, the sequences of proteins in these tests, tags left out.
# UniProt O02799: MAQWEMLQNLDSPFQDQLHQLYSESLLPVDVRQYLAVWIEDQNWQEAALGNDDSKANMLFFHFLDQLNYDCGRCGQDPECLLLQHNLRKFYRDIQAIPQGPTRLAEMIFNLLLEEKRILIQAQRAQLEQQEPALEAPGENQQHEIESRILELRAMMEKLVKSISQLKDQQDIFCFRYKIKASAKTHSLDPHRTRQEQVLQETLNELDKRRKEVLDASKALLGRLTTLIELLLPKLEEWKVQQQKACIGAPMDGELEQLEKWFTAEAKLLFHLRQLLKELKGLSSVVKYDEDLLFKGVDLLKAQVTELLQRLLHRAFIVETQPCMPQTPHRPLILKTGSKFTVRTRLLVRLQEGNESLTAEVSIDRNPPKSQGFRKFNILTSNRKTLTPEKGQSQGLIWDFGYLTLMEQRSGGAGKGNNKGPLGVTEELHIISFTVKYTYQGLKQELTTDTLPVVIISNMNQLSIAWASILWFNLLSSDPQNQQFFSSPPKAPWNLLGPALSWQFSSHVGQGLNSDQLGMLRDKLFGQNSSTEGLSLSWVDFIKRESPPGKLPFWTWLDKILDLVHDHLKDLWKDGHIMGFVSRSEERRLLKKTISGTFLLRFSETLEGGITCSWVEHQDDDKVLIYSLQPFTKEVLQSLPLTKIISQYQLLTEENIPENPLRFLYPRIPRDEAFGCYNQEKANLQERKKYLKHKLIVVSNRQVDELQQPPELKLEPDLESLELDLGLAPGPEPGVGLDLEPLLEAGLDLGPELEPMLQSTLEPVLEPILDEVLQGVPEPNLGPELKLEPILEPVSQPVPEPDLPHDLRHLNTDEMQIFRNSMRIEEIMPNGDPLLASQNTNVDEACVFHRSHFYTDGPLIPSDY
# No constants are given. Whether binding was seen depends on the method and setting. In cells and extracts the contact can be indirect. Some entries that bind do so weakly or less than the wild type.
# Target: T1, endogenous STAT1 (pig (endogenous in PK15)) (UniProt Q764M5)
# T1 sequence: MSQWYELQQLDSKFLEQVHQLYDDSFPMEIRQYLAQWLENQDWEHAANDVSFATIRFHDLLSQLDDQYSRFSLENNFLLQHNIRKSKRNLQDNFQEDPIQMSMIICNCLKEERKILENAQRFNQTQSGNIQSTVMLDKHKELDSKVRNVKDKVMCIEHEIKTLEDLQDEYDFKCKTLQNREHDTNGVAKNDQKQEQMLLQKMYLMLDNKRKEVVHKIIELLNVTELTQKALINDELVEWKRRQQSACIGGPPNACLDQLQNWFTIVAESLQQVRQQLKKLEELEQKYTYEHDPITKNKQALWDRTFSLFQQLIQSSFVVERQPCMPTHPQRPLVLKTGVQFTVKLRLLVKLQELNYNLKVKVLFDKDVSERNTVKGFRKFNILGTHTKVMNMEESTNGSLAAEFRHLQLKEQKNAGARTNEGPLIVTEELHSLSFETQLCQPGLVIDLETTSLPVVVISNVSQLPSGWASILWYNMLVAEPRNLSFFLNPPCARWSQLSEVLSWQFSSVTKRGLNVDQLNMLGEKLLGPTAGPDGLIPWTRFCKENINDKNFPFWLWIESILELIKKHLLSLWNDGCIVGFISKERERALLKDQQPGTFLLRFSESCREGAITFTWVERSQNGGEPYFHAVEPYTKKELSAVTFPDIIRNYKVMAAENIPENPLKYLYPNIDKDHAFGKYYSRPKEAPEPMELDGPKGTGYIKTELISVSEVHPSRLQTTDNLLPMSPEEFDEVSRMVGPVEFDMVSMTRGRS
# Test: co-IP
substance,measurement,value
endogenous STAT2 (from UniProt O02799 1-864),binding,binds
